# In patent US20110230418A1:
# Results are given in words; binding and its absence hold for the method and conditions named. Some results given as binding are weak or reduced against the parent protein; the word gives no strength.
# Target: human HB-EGF expressed on SK-HB-1 cells (SKOV-3 cells transfected with human HB-EGF cDNA) (human) (UniProt Q99075)
# Experiment: radioligand binding to SK-HB-1 cells expressing human HB-EGF, compared with parental SKOV-3 cells
substance,measurement,value
125I-labeled diphtheria toxin (from UniProt P00587 26-560),binding,binds
